Results: patent US20260144808

Amino acid sequences for entries named in this document (tags omitted).
UniProt Q9UER7, whole entry: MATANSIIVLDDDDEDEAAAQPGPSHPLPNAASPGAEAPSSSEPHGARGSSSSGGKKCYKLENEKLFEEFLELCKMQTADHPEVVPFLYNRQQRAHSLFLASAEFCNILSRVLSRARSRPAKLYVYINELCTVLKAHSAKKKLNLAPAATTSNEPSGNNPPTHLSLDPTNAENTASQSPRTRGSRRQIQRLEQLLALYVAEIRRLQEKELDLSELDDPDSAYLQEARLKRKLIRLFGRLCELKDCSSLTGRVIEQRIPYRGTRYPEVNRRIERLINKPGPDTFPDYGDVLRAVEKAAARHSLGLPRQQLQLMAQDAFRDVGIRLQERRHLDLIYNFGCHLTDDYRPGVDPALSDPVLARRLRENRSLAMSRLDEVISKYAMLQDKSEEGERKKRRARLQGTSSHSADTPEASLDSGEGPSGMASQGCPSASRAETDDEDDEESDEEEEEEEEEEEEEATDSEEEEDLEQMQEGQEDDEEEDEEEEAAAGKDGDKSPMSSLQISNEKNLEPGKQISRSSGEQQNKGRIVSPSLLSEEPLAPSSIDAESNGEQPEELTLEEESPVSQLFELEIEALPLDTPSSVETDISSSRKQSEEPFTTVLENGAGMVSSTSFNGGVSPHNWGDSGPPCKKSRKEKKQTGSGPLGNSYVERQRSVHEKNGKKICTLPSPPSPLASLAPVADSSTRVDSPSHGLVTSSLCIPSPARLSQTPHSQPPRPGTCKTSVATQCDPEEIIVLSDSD

Key:
[1] = target: DAXX (endogenous) (Homo sapiens) (UniProt Q9UER7); test: pull-down; conditions: protein in an extract, label: 3' biotin on forward strand
[2] = target: DAXX (Homo sapiens) (UniProt Q9UER7); test: EMSA; conditions: length-matched random control; same buffer; purified recombinant protein; label: 5' Alexa Fluor 488 on one strand

## GACTGACTGATAGATCCTAAGTACTGATTACTGACTAACAAC (double strand) [random control dsDNA 42 bp]
[1]; random control, DAXX enriched on (G4C2)6 relative to this
  binding result: binds more weakly

## GACTGACTGATAGATCCTAAGTACTGATTACTGACTATAGATCTAAGTCATGATCAGTTA (double strand) [random control dsDNA 60 bp]
[2]
  binding result: binds more weakly

## GGGGCCGGGGCCGGGGCCGGGGCCGGGGCCGGGGCCAACAAC (double strand) [(G4C2)6 dsDNA]
[1]; SILAC MS top-ranked and immunoblot, PBS pH 7.4, 0.01% Tween-20, 4 C 2 h
  binding result: binds

A weaker result is weaker than the reference pair of the same experiment. For part of these data: The exact form of at least one protein or probe is not confirmed. For part of these data: Results from cells or extracts need not show a direct contact.
